Patent US5972599
pKd: −log10 of the molar value. For some of these results: No signal at the amounts used counts as a negative. For some of these results: The comparison behind a weaker result is the experiment's own reference, which may not be listed here. For some of these results: Protein sequences can lack the tags named with them.

Protein sequences, listed by entry. Tags and fused reporters are not part of them. Residues count along the entry.
UniProt P01375, 77-233: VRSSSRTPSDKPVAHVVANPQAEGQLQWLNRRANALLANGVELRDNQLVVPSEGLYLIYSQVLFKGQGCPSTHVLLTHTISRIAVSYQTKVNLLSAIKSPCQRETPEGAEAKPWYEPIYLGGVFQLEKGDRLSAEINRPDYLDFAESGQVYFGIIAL

How the values were obtained:
[1] = target: TNF-alpha (Homo sapiens) (UniProt P01375); experiment: filter binding; conditions: purified recombinant protein, protein details: Genzyme or R&D Systems; for binding result: 2'-F all C and U, NB, 2'F version
[2] = target: T1, IL-10 (Mus musculus) (UniProt P18893); experiment: filter binding; conditions: 2'-F all C and U; does not bind mIL-10 with high affinity; purified recombinant protein; protein details: R & D Systems
T1 sequence (looked up, limits assumed): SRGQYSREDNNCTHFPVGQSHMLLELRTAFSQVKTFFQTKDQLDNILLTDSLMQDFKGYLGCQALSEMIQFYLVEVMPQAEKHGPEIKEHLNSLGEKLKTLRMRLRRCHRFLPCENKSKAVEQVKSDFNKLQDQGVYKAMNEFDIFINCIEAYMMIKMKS

| Sequence | pKd ([1]; no Kd shown means above 1 uM) | further results |
| --- | --- | --- |
| GGGAGCUCAGAAUAAACGCUCAAGGUGUGCCCAAGGCCCUUGAGAGAGGCGUGUUCGACAUGAGGCCCGGAUCCGGC [TNF 20A] | < 6.00 | – |
| GGGAGCUCAGAAUAAACGCUCAACGCCGAGACCCACCUCAUAACACCGCUACCUUCGACAUGAGGCCCGGAUCCGGC [TNF 10C 2'F] | – | binding result ([1]; variant of TNF 10C): no binding |
| GGGAGCUCAGAAUAAACGCUCAACGGGUGAAUCACGGCUGGUGCGUUGCCCCUUCGACAUGAGGCCCGGAUCCGGC [TNF 1C] | < 6.00 | – |
| GGGAGCUCAGAAUAAACGCUCAAGUGGAGGGUACGUGGAGGGGAGAGCGAUAUUCGACAUGAGGCCCGGAUCCGGC [TNF 9A] | < 6.00 | – |
| GGGAGCUCAGAAUAAACGCUCAACUAGGCCCACCGUCCCUUCUAACAACGUCUUCGACAUGAGGCCCGGAUCCGGC [TNF 4C 2'F] | – | binding result ([1]; variant of TNF 4C): no binding |
| GGGAGCUCAGAAUAAACGCUCAAUGAGGCGCGCCACAGGAUGGCCCUCAACCCUUCGACAUGAGGCCCGGAUCCGGC [TNF 11C 2'F] | – | binding result ([1]; variant of TNF 11C): no binding |
| GGGAGCUCAGAAUAAACGCUCAACGUGAUUUGGCCACGGGAAAGAGCCAUACCUUCGACAUGAGGCCCGGAUCCGGC [TNF 13A] | < 6.00 | – |
| GGGAGCUCAGAAUAAACGCUCAAGUCGCUCGAUCGUUUCAUGCCCGUCCGACCUUCGACAUGAGGCCCGGAUCCGGC [TNF 18A] | < 6.00 | – |
| GGGAGACAAGAAUAAACGCUCAAACAUCGUAUAACUCUAAGGGCCUGGAUAUACGAUGAAUUCGACAGGAGGCUCACAACAGGC [IL-10 ligand 43] | – | binding result [2]: binds more weakly |
| GGGAGCUCAGAAUAAACGCUCAAUUCGAAGCCACGUUUCAUGUCCGUCGCUGCUUCGACAUGAGGCCCGGAUCCGGC [TNF 7A] | < 6.00 | – |
| GGGAGCUCAGAAUAAACGCUCAAGUCCACACUUUGCCGAGCGUCCUAGUGUUCGACAUGAGGCCCGGAUCCGGC [TNF 28A] | – | pKd ([1]; no value shown, but printed sequence identical to 8C (430 nM)): < 6.00 |
| GGGAGCUCAGAAUAAACGCUCAAGGUGUGCCCCUACGUGCGGCCCUUCGUUUAUUCGACAUGAGGCCCGGAUCCGGC [TNF 13C] | < 6.00 | – |
| GGGAGCUCAGAAUAAACGCUCAAGGUGUGCCAAAGGCCCUUGAGAGAGGCGUAUUCGACAUGAGGCCCGGAUCCGGC [TNF 24A] | < 6.00 | – |
| GGGAGCUCAGAAUAAACGCUCAAACGGCUGACAACGGCUGGACUUGCGUAUUGUUCGACAUGAGGCCCGGAUCCGGC [TNF 1A] | < 6.00 | – |
| GGGAGCUCAGAAUAAACGCUCAAUCUCAUGCUCGCGUGCGUCGCCUCAACCAUUCGACAUGAGGCCCGGAUCCGGC [TNF 10A] | < 6.00 | – |
| GGGAGCUCAGAAUAAACGCUCAACGUCGACGCACUGUGCCGCCUCACACACGCUUCGACAUGAGGCCCGGAUCCGGC [TNF 2C] | < 6.00 | – |
| GGGAGCUCAGAAUAAACGCUCAAGUCCGCAUGAUGCUUCGAACAGCAUACAACUUCGACAUGAGGCCCGGAUCCGGC [TNF 12C 2'F] | – | binding result ([1]; variant of TNF 12C): no binding |
| GGGAGCUCAGAAUAAACGCUCAAUGUCGAUCGUGUCAAGGUCCGUCCUACUUCUUCGACAUGAGGCCCGGAUCCGGC [TNF 19C 2'F] | – | binding result ([1]; variant of TNF 19C): no binding |
| GGGAGCUCAGAAUAAACGCUCAAUGUCAUGCAUGUGUGUCGCCUCAUCACGCAUUCGACAUGAGGCCCGGAUCCGGC [TNF 5A] | < 6.00 | – |
| GGGAGCUCAGAAUAAACGCUCAACGUUGAACGCUUGGUUUCAUGUCCCUCGCCUUCGACAUGAGGCCCGGAUCCGGC [TNF 14A] | < 6.00 | – |
| GGGAGCUCAGAAUAAACGCUCAAUCCCUCAGUGUCAAGUGCGUCGCCUCAGCAUUCGACAUGAGGCCCGGAUCCGGC [TNF 11A] | < 6.00 | – |
| GGGAGCUCAGAAUAAACGCUCAAGCGAACGUCAUGCCGCCUCAUCAUGCCACGUUCGACAUGAGGCCCGGAUCCGGC [TNF 3C] | < 6.00 | – |
| GGGAGCUCAGAAUAAACGCUCAAGCGCUUGACCAUUUCGUAGGGUCGCCCUUGUUCGACAUGAGGCCCGGAUCCGGC [TNF 2A] | < 6.00 | – |
| GGGAGCUCAGAAUAAACGCUCAAUGUCGAGUGCGAUGGAGGAGUAGGGAUGCAUUCGACAUGAGGCCCGGAUCCGGC [TNF 18C 2'F] | – | binding result ([1]; variant of TNF 18C): no binding |
| GGGAGCUCAGAAUAAACGCUCAACUAGUUCAACCGUCCCUUCUAACAACCGUCUUCGACAUGAGGCCCGGAUCCGGC [TNF 15C 2'F] | – | binding result ([1]; variant of TNF 15C): no binding |
